Measured values published in publication PMC9700792.

The chains behind the UniProt entries cited, without tags or fusion partners. Residues count along the entry.
UniProt Q8BNW9: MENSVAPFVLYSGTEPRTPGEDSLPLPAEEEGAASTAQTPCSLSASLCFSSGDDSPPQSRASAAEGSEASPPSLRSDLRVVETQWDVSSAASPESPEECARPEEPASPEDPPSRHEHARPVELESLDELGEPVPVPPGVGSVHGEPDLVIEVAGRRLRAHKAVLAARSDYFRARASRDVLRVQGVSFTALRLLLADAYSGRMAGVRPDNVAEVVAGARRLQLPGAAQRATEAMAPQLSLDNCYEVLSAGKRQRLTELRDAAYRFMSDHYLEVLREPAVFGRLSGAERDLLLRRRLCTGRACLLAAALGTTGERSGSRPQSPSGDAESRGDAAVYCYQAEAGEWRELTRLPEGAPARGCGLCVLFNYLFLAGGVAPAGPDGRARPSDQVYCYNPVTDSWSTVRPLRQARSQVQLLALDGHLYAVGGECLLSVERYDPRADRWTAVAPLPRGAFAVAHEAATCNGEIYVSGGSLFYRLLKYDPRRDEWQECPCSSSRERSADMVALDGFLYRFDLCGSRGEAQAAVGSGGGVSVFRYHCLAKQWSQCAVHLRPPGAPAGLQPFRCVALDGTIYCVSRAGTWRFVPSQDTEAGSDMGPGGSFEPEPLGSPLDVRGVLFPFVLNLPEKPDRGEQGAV
UniProt P63038, residues 27-573: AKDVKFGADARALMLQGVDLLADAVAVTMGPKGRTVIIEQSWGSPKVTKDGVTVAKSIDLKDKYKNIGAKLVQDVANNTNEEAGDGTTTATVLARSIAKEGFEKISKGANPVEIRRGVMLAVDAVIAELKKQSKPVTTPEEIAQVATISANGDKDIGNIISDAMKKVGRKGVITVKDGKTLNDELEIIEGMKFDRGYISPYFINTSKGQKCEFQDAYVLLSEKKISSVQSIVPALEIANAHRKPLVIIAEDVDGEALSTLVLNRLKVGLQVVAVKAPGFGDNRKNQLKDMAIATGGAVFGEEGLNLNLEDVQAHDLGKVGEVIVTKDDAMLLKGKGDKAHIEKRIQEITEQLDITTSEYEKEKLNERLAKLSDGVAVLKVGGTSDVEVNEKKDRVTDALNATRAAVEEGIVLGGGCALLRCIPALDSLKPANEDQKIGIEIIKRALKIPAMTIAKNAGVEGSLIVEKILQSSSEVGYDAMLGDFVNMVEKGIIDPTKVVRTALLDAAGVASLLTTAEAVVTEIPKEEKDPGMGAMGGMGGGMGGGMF

Molecular target: FLAG-His-tagged KBTBD11 (UniProt Q8BNW9)
Assay: affinity purification with mass spectrometry; tandem affinity purification (anti-FLAG M2 agarose, 3xFLAG peptide elution, then Ni-NTA agarose) of KBTBD11-FLAG-His from adenovirus-infected differentiated 3T3-L1 adipocytes (day 4); SDS-PAGE, silver staining, bands identified by MALDI-TOF MS

binding: binds
Substance: HSP60 (from UniProt P63038 27-573)

No constants are given. Whether binding was seen depends on the method and setting. Binding seen in cells or lysates may run through a third protein. These calls come from enrichment with a bait or labelling near it, and not all partners need be listed.
